# Source: the supplement of paper PMC8728848
# The other results are listed elsewhere or left out.
# Tests used:
# Assay in all cases: glycan array binding signal (z-score within array); higher = stronger binding
# Details in all cases: glycan notation: IUPAC condensed, linker removed
# [1] = target: GlcNAc(b1-2)Man(a1-3)[GlcNAc(b1-2)Man(a1-6)]Man(b1-4)GlcNAc(b1-4)GlcNAc
# Method in brief: (§1)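 The binding signal is a Z-score computed within each array and averaged over linkers. Arrays of the same protein sequence at different concentrations or buffers were also averaged together. Data originate from 3228 arrays in the Consortium for Functional Glycomics database, kept only where the protein sequence was available.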
# [2] = target: GlcNAc(b1-2)Man(a1-3)[GlcNAc(b1-2)Man(a1-6)]Man(b1-4)GlcNAc(b1-4)[Fuc(a1-6)]GlcNAc
# Method in brief: as §1
# [3] = target: GlcNAc(b1-2)Man(a1-3)[GlcNAc(b1-4)][GlcNAc(b1-2)Man(a1-6)]Man(b1-4)GlcNAc(b1-4)GlcNAc
# Method in brief: as §1
# [4] = target: GlcNAc(b1-2)Man(a1-3)[GlcNAc(b1-4)][GlcNAc(b1-2)Man(a1-6)]Man(b1-4)GlcNAc(b1-4)[Fuc(a1-6)]GlcNAc
# Method in brief: as §1
# [5] = target: GlcNAc(b1-2)[GlcNAc(b1-4)]Man(a1-3)[GlcNAc(b1-2)Man(a1-6)]Man(b1-4)GlcNAc(b1-4)GlcNAc
# Method in brief: as §1
# [6] = target: GlcNAc(b1-2)[GlcNAc(b1-4)]Man(a1-3)[GlcNAc(b1-4)][GlcNAc(b1-2)Man(a1-6)]Man(b1-4)GlcNAc(b1-4)GlcNAc
# Method in brief: as §1
# [7] = target: GlcNAc(b1-2)[GlcNAc(b1-4)]Man(a1-3)[GlcNAc(b1-4)][GlcNAc(b1-2)[GlcNAc(b1-6)]Man(a1-6)]Man(b1-4)GlcNAc(b1-4)GlcNAc
# Method in brief: as §1
# [8] = target: GlcNAc(b1-2)[GlcNAc(b1-4)]Man(a1-3)[GlcNAc(b1-4)][GlcNAc(b1-2)[GlcNAc(b1-6)]Man(a1-6)]Man(b1-4)GlcNAc(b1-4)[Fuc(a1-6)]GlcNAc
# Method in brief: as §1
# [9] = target: GlcNAc(b1-2)[GlcNAc(b1-6)]Man(a1-6)[GlcNAc(b1-2)Man(a1-3)]Man(b1-4)GlcNAc(b1-4)GlcNAc
# Method in brief: as §1
# [10] = target: GlcNAc(b1-2)[GlcNAc(b1-6)]Man(a1-6)[GlcNAc(b1-2)Man(a1-3)]Man(b1-4)GlcNAc(b1-4)[Fuc(a1-6)]GlcNAc
# Method in brief: as §1
# [11] = target: GlcNAc(b1-2)[GlcNAc(b1-6)]Man(a1-6)[GlcNAc(b1-4)][GlcNAc(b1-2)Man(a1-3)]Man(b1-4)GlcNAc(b1-4)GlcNAc
# Method in brief: as §1
# GlcNAc(b1-3)Fuc = target: GlcNAc(b1-3)Fuc
# Method in brief: as §1
# GlcNAc(b1-3)Gal = target: GlcNAc(b1-3)Gal
# Method in brief: as §1
# [12] = target: GlcNAc(b1-3)Gal(b1-3)GalNAc
# Method in brief: as §1
# GlcNAc(b1-3)Gal(b1-4)Glc = target: GlcNAc(b1-3)Gal(b1-4)Glc
# Method in brief: as §1
# [13] = target: GlcNAc(b1-3)Gal(b1-4)GlcNAc
# Method in brief: as §1
# [14] = target: GlcNAc(b1-3)Gal(b1-4)GlcNAc(b1-2)Man(a1-3)[GlcNAc(b1-3)Gal(b1-4)GlcNAc(b1-2)Man(a1-6)]Man(b1-4)GlcNAc(b1-4)GlcNAc
# Method in brief: as §1
# [15] = target: GlcNAc(b1-3)Gal(b1-4)GlcNAc(b1-2)Man(a1-3)[GlcNAc(b1-3)Gal(b1-4)GlcNAc(b1-2)Man(a1-6)]Man(b1-4)GlcNAc(b1-4)[Fuc(a1-6)]GlcNAc
# Method in brief: as §1
# [16] = target: GlcNAc(b1-3)Gal(b1-4)GlcNAc(b1-2)[GlcNAc(b1-3)Gal(b1-4)GlcNAc(b1-6)]Man(a1-6)[GlcNAc(b1-3)Gal(b1-4)GlcNAc(b1-2)Man(a1-3)]Man(b1-4)GlcNAc(b1-4)GlcNAc
# Method in brief: as §1
# [17] = target: GlcNAc(b1-3)Gal(b1-4)GlcNAc(b1-3)Gal(b1-4)GlcNAc
# Method in brief: as §1
# [18] = target: GlcNAc(b1-3)Gal(b1-4)GlcNAc(b1-3)Gal(b1-4)GlcNAc(b1-2)Man(a1-3)[GlcNAc(b1-3)Gal(b1-4)GlcNAc(b1-3)Gal(b1-4)GlcNAc(b1-2)Man(a1-6)]Man(b1-4)GlcNAc(b1-4)GlcNAc
# Method in brief: as §1
# [19] = target: GlcNAc(b1-3)Gal(b1-4)GlcNAc(b1-3)Gal(b1-4)GlcNAc(b1-2)Man(a1-3)[GlcNAc(b1-3)Gal(b1-4)GlcNAc(b1-3)Gal(b1-4)GlcNAc(b1-2)Man(a1-6)]Man(b1-4)GlcNAc(b1-4)[Fuc(a1-6)]GlcNAc
# Method in brief: as §1
# [20] = target: GlcNAc(b1-3)Gal(b1-4)GlcNAc(b1-3)Gal(b1-4)GlcNAc(b1-2)[GlcNAc(b1-3)Gal(b1-4)GlcNAc(b1-3)Gal(b1-4)GlcNAc(b1-6)]Man(a1-6)[GlcNAc(b1-3)Gal(b1-4)GlcNAc(b1-3)Gal(b1-4)GlcNAc(b1-2)Man(a1-3)]Man(b1-4)GlcNAc(b1-4)[Fuc(a1-6)]GlcNAc
# Method in brief: as §1
# [21] = target: GlcNAc(b1-3)Gal(b1-4)GlcNAc(b1-3)Gal(b1-4)GlcNAc(b1-3)Gal(b1-4)GlcNAc(b1-2)Man(a1-3)[GlcNAc(b1-3)Gal(b1-4)GlcNAc(b1-3)Gal(b1-4)GlcNAc(b1-3)Gal(b1-4)GlcNAc(b1-2)Man(a1-6)]Man(b1-4)GlcNAc(b1-4)GlcNAc
# Method in brief: as §1
# [22] = target: GlcNAc(b1-3)Gal(b1-4)GlcNAc(b1-3)Gal(b1-4)GlcNAc(b1-3)Gal(b1-4)GlcNAc(b1-2)Man(a1-3)[GlcNAc(b1-3)Gal(b1-4)GlcNAc(b1-3)Gal(b1-4)GlcNAc(b1-3)Gal(b1-4)GlcNAc(b1-2)Man(a1-6)]Man(b1-4)GlcNAc(b1-4)[Fuc(a1-6)]GlcNAc
# Method in brief: as §1
# [23] = target: GlcNAc(b1-3)Gal(b1-4)GlcNAc(b1-3)Gal(b1-4)GlcNAc(b1-3)Gal(b1-4)GlcNAc(b1-2)[GlcNAc(b1-3)Gal(b1-4)GlcNAc(b1-3)Gal(b1-4)GlcNAc(b1-3)Gal(b1-4)GlcNAc(b1-6)]Man(a1-6)[GlcNAc(b1-3)Gal(b1-4)GlcNAc(b1-3)Gal(b1-4)GlcNAc(b1-3)Gal(b1-4)GlcNAc(b1-2)Man(a1-3)]Man(b1-4)GlcNAc(b1-4)[Fuc(a1-6)]GlcNAc
# Method in brief: as §1
# [24] = target: GlcNAc(b1-3)Gal(b1-4)GlcNAc(b1-3)Gal(b1-4)GlcNAc(b1-3)Gal(b1-4)GlcNAc(b1-3)Gal(b1-4)GlcNAc(b1-2)Man(a1-3)[GlcNAc(b1-3)Gal(b1-4)GlcNAc(b1-3)Gal(b1-4)GlcNAc(b1-3)Gal(b1-4)GlcNAc(b1-3)Gal(b1-4)GlcNAc(b1-2)Man(a1-6)]Man(b1-4)GlcNAc(b1-4)GlcNAc
# Method in brief: as §1
# [25] = target: GlcNAc(b1-3)Gal(b1-4)GlcNAc(b1-3)Gal(b1-4)GlcNAc(b1-3)Gal(b1-4)GlcNAc(b1-3)Gal(b1-4)GlcNAc(b1-2)Man(a1-3)[GlcNAc(b1-3)Gal(b1-4)GlcNAc(b1-3)Gal(b1-4)GlcNAc(b1-3)Gal(b1-4)GlcNAc(b1-3)Gal(b1-4)GlcNAc(b1-2)Man(a1-6)]Man(b1-4)GlcNAc(b1-4)[Fuc(a1-6)]GlcNAc
# Method in brief: as §1
# [26] = target: GlcNAc(b1-3)Gal(b1-4)GlcNAc(b1-3)Gal(b1-4)GlcNAc(b1-3)Gal(b1-4)GlcNAc(b1-3)Gal(b1-4)GlcNAc(b1-2)[GlcNAc(b1-3)Gal(b1-4)GlcNAc(b1-3)Gal(b1-4)GlcNAc(b1-3)Gal(b1-4)GlcNAc(b1-3)Gal(b1-4)GlcNAc(b1-6)]Man(a1-6)[GlcNAc(b1-3)Gal(b1-4)GlcNAc(b1-3)Gal(b1-4)GlcNAc(b1-3)Gal(b1-4)GlcNAc(b1-3)Gal(b1-4)GlcNAc(b1-2)Man(a1-3)]Man(b1-4)GlcNAc(b1-4)[Fuc(a1-6)]GlcNAc
# Method in brief: as §1
# [27] = target: GlcNAc(b1-3)Gal(b1-4)GlcNAc(b1-3)Gal(b1-4)GlcNAc(b1-3)GalNAc
# Method in brief: as §1
binder,measurement,setting,value
Blon0732mut (Bifidobacterium longum) (protein) MPTSEHKADDATRHLTLIPAPVTLEYTHGTALIGPLVTIEDADQSWETLPIEQLSDELRHRYGVTVLRRRTHGTVISLGLDSRLAHDEYTLDVSESEGIRVRGGGESGLRYGLQTLRQIIGQTSRAIPCLHIQDKPAFAVRAYSLDVTRGRVPTMEFLTWFVDQLALYKYNQFQLYVEHAFAFVELSEAWRGTDPLTAADITYLDEYCARRGIELVPSLATFGHMYMNLRTREHRGLGEFPEDADRPFSFIERMEHHTLNAADPKAHDFASRLIEEYAPLFRSKSFNIGGNETFDLGRGRSAQDAPEAGRDELYAGFVRDLCETLARHGRQPMLWADIALESPRTMDLLPGDITMLNWMYEPQIDESKIQTIATQGRRQFVCPAVRAWSRFFPDYAGAWLNTYHMALAGTKYDAEGMVVTDWGDYGHVNDPRLSVPGLCYGAQNAWNPIEIDAHEMNRRISALVYGDESGRIMDCLARIDSDGVSFPWDLAVQVLELEYGSGTGALNMDVAACMERSSGGKLTLDRTLGCDDARRRMLQWNRERIERRRDCDQVLRDCGDAFAGLDKGGLTAEFLSVMLDGQRLFNELGEELLALADGKDVGSGANRLAADLELWFERYRAQWLSVGRHAELARIAHVVWSLADILRRGAL,glycan array binding signal (z-score),[1],0.292
same,glycan array binding signal (z-score),[2],0.425
same,glycan array binding signal (z-score),[3],-0.795
same,glycan array binding signal (z-score),[4],-0.15
same,glycan array binding signal (z-score),[5],-0.518
same,glycan array binding signal (z-score),[6],1.28
same,glycan array binding signal (z-score),[7],-0.463
same,glycan array binding signal (z-score),[8],0.4
same,glycan array binding signal (z-score),[9],0.341
same,glycan array binding signal (z-score),[10],0.453
same,glycan array binding signal (z-score),[11],-0.576
same,glycan array binding signal (z-score),GlcNAc(b1-3)Fuc,-1.38
same,glycan array binding signal (z-score),GlcNAc(b1-3)Gal,-0.251
same,glycan array binding signal (z-score),[12],-0.685
same,glycan array binding signal (z-score),GlcNAc(b1-3)Gal(b1-4)Glc,-0.575
same,glycan array binding signal (z-score),[13],-0.152
same,glycan array binding signal (z-score),[14],-0.851
same,glycan array binding signal (z-score),[15],-0.567
same,glycan array binding signal (z-score),[16],3.03
same,glycan array binding signal (z-score),[17],-0.588
same,glycan array binding signal (z-score),[18],-0.416
same,glycan array binding signal (z-score),[19],0.158
same,glycan array binding signal (z-score),[20],-0.459
same,glycan array binding signal (z-score),[21],-0.058
same,glycan array binding signal (z-score),[22],0.457
same,glycan array binding signal (z-score),[23],-0.35
same,glycan array binding signal (z-score),[24],0.694
same,glycan array binding signal (z-score),[25],-0.189
same,glycan array binding signal (z-score),[26],-1.01
same,glycan array binding signal (z-score),[27],-0.346

# A portion from further up:
binder,measurement,setting,value
Blon0732mut (Bifidobacterium longum) (protein) MPTSEHKADDATRHLTLIPAPVTLEYTHGTALIGPLVTIEDADQSWETLPIEQLSDELRHRYGVTVLRRRTHGTVISLGLDSRLAHDEYTLDVSESEGIRVRGGGESGLRYGLQTLRQIIGQTSRAIPCLHIQDKPAFAVRAYSLDVTRGRVPTMEFLTWFVDQLALYKYNQFQLYVEHAFAFVELSEAWRGTDPLTAADITYLDEYCARRGIELVPSLATFGHMYMNLRTREHRGLGEFPEDADRPFSFIERMEHHTLNAADPKAHDFASRLIEEYAPLFRSKSFNIGGNETFDLGRGRSAQDAPEAGRDELYAGFVRDLCETLARHGRQPMLWADIALESPRTMDLLPGDITMLNWMYEPQIDESKIQTIATQGRRQFVCPAVRAWSRFFPDYAGAWLNTYHMALAGTKYDAEGMVVTDWGDYGHVNDPRLSVPGLCYGAQNAWNPIEIDAHEMNRRISALVYGDESGRIMDCLARIDSDGVSFPWDLAVQVLELEYGSGTGALNMDVAACMERSSGGKLTLDRTLGCDDARRRMLQWNRERIERRRDCDQVLRDCGDAFAGLDKGGLTAEFLSVMLDGQRLFNELGEELLALADGKDVGSGANRLAADLELWFERYRAQWLSVGRHAELARIAHVVWSLADILRRGAL,glycan array binding signal (z-score),[13],-0.152
same,glycan array binding signal (z-score),[14],-0.851
